Paper doi:10.1101/2025.04.25.650714
No constants are given. Whether binding was seen depends on the method and setting. For part of these data: In cells and extracts the contact can be indirect. Some entries that bind do so weakly or less than the wild type. For part of these data: Sequences can lack the tags named with a protein.

The chains behind the UniProt entries cited, without tags or fusion partners.
UniProt Q9VZX9: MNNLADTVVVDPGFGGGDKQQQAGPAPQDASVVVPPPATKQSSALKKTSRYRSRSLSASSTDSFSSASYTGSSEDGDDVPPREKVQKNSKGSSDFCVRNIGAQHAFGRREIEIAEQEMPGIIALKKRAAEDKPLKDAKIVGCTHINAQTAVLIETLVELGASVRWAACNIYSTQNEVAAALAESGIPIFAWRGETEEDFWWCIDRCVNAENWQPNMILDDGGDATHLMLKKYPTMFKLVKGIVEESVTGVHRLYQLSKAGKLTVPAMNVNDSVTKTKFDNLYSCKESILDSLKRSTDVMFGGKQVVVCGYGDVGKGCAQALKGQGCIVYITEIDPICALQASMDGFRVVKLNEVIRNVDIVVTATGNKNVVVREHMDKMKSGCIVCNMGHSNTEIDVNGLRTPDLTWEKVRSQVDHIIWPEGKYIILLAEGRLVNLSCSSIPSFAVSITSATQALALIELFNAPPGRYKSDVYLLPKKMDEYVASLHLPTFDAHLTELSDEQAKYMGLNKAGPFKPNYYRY
UniProt P50245: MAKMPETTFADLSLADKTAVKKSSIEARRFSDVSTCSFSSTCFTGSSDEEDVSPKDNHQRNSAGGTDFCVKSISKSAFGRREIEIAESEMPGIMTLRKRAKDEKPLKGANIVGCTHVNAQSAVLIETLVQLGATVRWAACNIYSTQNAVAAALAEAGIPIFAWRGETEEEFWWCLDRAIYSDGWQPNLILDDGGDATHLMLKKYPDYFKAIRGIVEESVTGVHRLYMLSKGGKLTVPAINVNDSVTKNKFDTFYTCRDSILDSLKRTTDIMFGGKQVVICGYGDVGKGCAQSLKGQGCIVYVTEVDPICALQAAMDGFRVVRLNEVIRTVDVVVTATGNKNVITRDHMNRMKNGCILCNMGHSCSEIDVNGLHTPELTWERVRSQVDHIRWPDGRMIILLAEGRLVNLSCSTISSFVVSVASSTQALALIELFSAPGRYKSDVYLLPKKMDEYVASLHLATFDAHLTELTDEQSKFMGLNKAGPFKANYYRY

Experiments:
[1] = biological target: AhcyL1, epitope-tagged, overexpressed in S2 cells (Drosophila) (UniProt Q9VZX9); assay: co-IP
[2] = biological target: T1, S-adenosylhomocysteinase (Ahcy), epitope-tagged, overexpressed in S2 cells (Drosophila) (UniProt Q27580); assay: co-IP
T1 sequence: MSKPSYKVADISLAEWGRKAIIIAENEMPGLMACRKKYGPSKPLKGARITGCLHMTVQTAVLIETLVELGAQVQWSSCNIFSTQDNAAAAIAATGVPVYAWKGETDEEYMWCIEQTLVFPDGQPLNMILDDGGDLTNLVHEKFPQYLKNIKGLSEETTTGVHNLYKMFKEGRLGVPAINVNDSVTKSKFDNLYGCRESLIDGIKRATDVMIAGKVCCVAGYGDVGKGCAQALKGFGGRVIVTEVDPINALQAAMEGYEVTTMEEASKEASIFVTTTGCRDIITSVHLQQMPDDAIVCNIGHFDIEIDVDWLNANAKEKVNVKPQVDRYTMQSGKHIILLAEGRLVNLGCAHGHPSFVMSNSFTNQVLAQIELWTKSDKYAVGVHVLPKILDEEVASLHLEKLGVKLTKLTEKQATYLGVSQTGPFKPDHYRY

[3] = biological target: T2, Ahcy, yeast two-hybrid fusion (Drosophila) (UniProt Q27580); assay: two-hybrid
T2 sequence: T1 sequence

[4] = biological target: AhcyL1, yeast two-hybrid fusion (Drosophila) (UniProt Q9VZX9); assay: two-hybrid

AhcyL1, epitope-tagged, overexpressed in S2 cells (from UniProt Q9VZX9 1-521)
binding [1]: binds
binding [2]: no binding

AhcyL1, yeast two-hybrid fusion (from UniProt Q9VZX9 1-521)
binding [3]: no binding
binding [4]: binds

AhcyL2, epitope-tagged, overexpressed in S2 cells (from UniProt P50245 1-492)
binding [2]: no binding

AhcyL2, yeast two-hybrid fusion (from UniProt P50245 1-492)
binding [3]: no binding
binding [4]: no binding

B1: S-adenosylhomocysteinase (Ahcy), epitope-tagged, overexpressed in S2 cells (enzyme, UniProt Q27580 1-432)
chain: T1 sequence
binding [2]: binds

B2: Ahcy, yeast two-hybrid fusion (enzyme, UniProt Q27580 1-432)
chain: T1 sequence
binding [3]: binds
